According to patent US10906946B2, “Thrombin inhibitors” (priority 2015, dated 2021):
Some of these results come from one statement about several compounds together. Peptide text beside a SMILES is read from it.

System: platelets (ADP-induced platelet aggregation)
Assay: Preservation of platelet function in blood tubes (Multiplate, ADP-induced platelet aggregation)
Format: cell-based, human (healthy volunteers)
Settings: cut-off 32 U
Procedure: Individual peptides are dissolved in phosphate buffered saline to prepare 10× peptide solutions (ie. concentrations of peptides are 10 times higher than the final concentrations at which they are to be tested). 0.3 ml of the 10× peptide solutions are placed in blood tubes without any additives. Blood was drawn from healthy volunteers using syringes and immediately transferred to a 50 ml conical centrifuge tube (Falcon tube) before pipetting 2.7 ml of the blood into blood tubes with peptide solutions. Final concentrations of peptides are as stated in Table 5 and 6.
Blood tubes with various peptides at different concentrations were left standing at room temperature until tested at designated times. At different time points, tubes were inverted several times and blood samples were taken out for platelet aggregation tests using a Multiplate® Platelet aggregometer with adenosine diphosphate (ADP) as agonist according to manufacturer's recommended protocols.

Compound	fold increase in stabilization window compared to citrate
CC[C@H](C)[C@H](NC(=O)[C@H](C)NC(=O)[C@H](CC(=O)O)NC(=O)[C@H](CC(=O)O)NC(=O)[C@@H]1CCCN1C(=O)[C@@H](NC(=O)[C@H](CCC(=O)O)NC(=O)[C@H](CCC(=O)O)NC(=O)[C@H](Cc1ccccc1)NC(=O)[C@H](CC(=O)O)NC(=O)CNC(=O)[C@@H]1CCCN1C(=O)[C@@H]1CCCN1C(=O)[C@H](C)NC(=O)[C@@H](NC(=O)[C@H](CO)NC(=O)[C@H](Cc1ccc(O)cc1)NC(=O)[C@H](CCSC)NC(=O)[C@H](CCCCN)NC(=O)[C@@H]1CCCN1C(=O)[C@@H](NC(=O)[C@H](C)NC(=O)[C@H](CCCNC(=N)N)NC(=O)[C@@H](NC(=O)[C@H](C)NC(=O)[C@H](CCC(=O)O)NC(=O)[C@H](CC(=O)O)NC(=O)[C@@H](N)CO)C(C)C)[C@@H](C)CC)[C@@H](C)O)[C@@H](C)CC)C(=O)N[C@@H](CCC(=O)O)C(=O)N[C@@H](CCC(=O)O)C(=O)O [Ultravariegin] (H-SDEAVRAIPKMYSTAPPGDFEEIPDDAIEE-OH; N-terminus and C-terminus assumed)	≥ 6 fold
CC[C@H](C)[C@H](NC(=O)[C@H](CCCCN)NC(=O)[C@@H]1CCCN1C(=O)[C@@H](NC(=O)[C@H](C)NC(=O)[C@@H](NC(=O)[C@H](CCC(N)=O)NC(=O)[C@H](Cc1c[nH]cn1)NC(=O)CNC(=O)CNC(=O)[C@@H](N)CO)[C@@H](C)O)C(C)C)C(=O)N[C@@H](CO)C(=O)N[C@@H](CCCCN)C(=O)N[C@@H](CCC(N)=O)C(=O)NCC(=O)N[C@@H](CC(C)C)C(=O)NCC(=O)NCC(=O)N[C@@H](CC(=O)O)C(=O)N[C@@H](Cc1ccccc1)C(=O)N[C@@H](CCC(=O)O)C(=O)N[C@@H](CCC(=O)O)C(=O)N[C@H](C(=O)N1CCC[C@H]1C(=O)N[C@@H](CO)C(=O)N[C@@H](CC(=O)O)C(=O)N[C@@H](CCC(=O)O)C(=O)N[C@H](C(=O)N[C@H](C(=O)N[C@@H](CCC(=O)O)C(=O)O)[C@@H](C)CC)[C@@H](C)CC)[C@@H](C)CC [Avathrin] (H-SGGHQTAVPKISKQGLGGDFEEIPSDEIIE-OH; N-terminus and C-terminus assumed)	≥ 6 fold
